# Experimental data: PubChem BioAssay (NCATS)
# The chains behind the UniProt entries cited, without tags or fusion partners. Where a name states a change or a piece, a line headed by the entry shows the natural chain unless it says otherwise.
# UniProt P07378: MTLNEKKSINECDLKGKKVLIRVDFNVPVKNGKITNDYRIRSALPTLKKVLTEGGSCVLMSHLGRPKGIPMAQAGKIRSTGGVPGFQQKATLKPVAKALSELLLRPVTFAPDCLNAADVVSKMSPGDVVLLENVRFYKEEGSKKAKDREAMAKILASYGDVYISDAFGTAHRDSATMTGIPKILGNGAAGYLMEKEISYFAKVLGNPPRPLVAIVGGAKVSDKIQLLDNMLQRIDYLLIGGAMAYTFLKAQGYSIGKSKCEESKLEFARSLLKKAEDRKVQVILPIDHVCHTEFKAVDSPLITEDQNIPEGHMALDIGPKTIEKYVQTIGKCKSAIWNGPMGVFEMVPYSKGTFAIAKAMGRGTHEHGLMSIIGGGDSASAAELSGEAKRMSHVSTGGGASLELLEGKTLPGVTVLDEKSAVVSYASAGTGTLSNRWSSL
# UniProt Q9UNA4: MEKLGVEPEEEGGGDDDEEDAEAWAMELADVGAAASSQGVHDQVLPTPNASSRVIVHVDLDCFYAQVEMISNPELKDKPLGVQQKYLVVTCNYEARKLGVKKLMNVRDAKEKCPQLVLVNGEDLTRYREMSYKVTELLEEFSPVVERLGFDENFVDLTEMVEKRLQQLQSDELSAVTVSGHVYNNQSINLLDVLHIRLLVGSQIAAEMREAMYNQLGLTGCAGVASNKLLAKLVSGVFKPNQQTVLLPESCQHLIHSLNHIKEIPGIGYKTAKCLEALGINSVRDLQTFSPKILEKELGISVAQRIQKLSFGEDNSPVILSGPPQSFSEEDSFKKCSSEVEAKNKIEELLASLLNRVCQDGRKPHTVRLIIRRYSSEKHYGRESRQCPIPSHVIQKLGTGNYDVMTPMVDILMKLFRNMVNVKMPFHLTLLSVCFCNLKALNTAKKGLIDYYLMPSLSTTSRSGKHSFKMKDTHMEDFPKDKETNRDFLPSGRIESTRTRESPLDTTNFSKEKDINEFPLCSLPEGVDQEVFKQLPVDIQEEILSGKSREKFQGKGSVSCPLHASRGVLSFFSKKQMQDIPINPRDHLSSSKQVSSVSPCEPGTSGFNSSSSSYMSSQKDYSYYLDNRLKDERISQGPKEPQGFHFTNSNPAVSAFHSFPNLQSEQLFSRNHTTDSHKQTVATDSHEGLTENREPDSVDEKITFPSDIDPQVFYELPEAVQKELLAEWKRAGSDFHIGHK
# UniProt Q9UBT6: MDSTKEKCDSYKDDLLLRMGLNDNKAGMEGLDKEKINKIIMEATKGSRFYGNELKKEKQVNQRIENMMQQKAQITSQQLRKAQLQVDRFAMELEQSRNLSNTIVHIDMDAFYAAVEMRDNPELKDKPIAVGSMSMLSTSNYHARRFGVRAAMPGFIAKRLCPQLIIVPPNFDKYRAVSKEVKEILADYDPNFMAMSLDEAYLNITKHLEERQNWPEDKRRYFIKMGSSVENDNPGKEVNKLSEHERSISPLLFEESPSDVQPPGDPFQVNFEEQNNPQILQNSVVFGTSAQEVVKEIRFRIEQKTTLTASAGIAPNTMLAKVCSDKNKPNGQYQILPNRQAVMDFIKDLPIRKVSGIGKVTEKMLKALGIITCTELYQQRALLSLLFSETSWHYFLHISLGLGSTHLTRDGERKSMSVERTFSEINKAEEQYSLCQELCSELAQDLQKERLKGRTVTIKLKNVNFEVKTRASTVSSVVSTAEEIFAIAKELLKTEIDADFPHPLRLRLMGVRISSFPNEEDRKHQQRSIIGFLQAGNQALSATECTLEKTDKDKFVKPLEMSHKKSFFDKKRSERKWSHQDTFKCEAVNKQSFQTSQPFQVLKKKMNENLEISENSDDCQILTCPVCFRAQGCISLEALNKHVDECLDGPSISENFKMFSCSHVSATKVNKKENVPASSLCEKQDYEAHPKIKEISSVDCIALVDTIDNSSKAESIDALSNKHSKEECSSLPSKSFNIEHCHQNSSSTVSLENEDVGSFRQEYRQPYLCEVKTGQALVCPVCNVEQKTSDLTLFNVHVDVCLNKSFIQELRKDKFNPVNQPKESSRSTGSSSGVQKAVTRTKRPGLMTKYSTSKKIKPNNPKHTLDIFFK
# UniProt Q9Y253: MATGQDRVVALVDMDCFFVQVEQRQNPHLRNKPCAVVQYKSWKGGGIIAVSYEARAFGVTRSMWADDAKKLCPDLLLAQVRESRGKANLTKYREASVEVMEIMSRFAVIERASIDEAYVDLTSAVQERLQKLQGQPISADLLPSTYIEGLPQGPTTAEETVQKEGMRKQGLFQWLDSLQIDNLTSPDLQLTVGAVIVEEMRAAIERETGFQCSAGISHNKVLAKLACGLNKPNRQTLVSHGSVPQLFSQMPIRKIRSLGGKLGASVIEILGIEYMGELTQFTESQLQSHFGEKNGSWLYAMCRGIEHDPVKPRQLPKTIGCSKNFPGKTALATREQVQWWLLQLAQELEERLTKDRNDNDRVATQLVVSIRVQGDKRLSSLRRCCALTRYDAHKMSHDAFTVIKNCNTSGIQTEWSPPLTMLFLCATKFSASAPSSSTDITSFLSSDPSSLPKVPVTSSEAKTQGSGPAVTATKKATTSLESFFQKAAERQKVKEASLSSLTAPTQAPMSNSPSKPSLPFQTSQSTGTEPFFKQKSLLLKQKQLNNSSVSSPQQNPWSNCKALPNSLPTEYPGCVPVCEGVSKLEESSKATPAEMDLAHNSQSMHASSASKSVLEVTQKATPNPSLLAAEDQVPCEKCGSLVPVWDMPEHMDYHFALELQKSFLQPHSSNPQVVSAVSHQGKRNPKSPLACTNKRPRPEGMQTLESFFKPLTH
# UniProt O95398: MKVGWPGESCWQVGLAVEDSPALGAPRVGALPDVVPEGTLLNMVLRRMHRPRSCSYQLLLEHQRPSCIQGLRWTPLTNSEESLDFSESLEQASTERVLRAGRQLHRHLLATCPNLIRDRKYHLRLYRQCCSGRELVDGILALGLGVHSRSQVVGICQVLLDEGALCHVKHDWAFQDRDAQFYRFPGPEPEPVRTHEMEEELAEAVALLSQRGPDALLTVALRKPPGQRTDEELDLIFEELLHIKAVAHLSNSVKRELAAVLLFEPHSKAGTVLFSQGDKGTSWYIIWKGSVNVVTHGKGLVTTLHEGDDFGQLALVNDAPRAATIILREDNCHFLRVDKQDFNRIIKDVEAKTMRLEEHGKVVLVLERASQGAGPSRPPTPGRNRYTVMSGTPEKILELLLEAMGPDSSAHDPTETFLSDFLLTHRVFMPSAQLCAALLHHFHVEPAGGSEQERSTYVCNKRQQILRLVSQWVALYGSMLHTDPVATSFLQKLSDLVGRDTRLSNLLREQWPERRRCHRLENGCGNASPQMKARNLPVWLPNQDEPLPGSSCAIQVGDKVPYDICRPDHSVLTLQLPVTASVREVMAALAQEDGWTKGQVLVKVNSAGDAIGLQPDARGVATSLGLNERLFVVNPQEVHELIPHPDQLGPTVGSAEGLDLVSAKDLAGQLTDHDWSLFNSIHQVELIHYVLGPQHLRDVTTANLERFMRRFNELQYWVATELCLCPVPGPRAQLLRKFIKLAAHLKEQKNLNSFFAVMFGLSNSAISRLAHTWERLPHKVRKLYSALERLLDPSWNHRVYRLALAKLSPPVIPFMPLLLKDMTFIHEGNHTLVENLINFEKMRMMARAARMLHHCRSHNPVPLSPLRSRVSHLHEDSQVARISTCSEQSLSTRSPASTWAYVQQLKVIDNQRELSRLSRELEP
# UniProt Q8WZA2: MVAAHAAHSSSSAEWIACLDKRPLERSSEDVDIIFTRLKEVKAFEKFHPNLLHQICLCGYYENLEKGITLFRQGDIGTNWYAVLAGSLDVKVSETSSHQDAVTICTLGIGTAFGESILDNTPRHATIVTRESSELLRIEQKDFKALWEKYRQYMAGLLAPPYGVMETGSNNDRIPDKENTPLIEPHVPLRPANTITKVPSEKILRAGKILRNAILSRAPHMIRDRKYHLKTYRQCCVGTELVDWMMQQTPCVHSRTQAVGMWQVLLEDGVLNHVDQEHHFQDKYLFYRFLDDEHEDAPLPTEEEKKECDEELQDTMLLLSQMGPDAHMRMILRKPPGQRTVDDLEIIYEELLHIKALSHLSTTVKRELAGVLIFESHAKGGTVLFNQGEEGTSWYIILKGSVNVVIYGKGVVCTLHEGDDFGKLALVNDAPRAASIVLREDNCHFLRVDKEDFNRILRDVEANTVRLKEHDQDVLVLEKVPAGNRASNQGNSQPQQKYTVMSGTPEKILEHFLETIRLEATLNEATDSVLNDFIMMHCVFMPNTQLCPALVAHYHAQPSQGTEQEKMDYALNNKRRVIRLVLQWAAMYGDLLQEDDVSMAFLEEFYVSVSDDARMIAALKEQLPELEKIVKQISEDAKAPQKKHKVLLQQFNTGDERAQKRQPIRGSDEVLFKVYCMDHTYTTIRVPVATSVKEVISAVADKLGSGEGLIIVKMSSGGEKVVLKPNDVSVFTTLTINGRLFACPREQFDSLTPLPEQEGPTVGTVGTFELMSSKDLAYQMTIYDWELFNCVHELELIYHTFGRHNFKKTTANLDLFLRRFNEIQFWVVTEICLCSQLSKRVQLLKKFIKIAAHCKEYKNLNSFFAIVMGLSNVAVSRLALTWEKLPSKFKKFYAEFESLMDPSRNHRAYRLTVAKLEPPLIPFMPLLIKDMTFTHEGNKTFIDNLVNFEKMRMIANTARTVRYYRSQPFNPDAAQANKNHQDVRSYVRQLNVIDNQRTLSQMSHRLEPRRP
# The shares of active, inactive and inconclusive entries below differ from those in the screen. For some of these results: Potencies beside an inconclusive call are fits to weak or partial responses and may not hold up. The source made the active and inactive calls. Calls follow the shape of the dose curve; as a rule, active = well fitted curve in the direction sought with a large enough effect; inconclusive = small, poorly fitted or top-dose-only effect, or another doubt; inactive = no such curve, though single readings can be large; an effect the other way counts as inactive or inconclusive.
# Tests used:
# [1] = molecular target: Phosphoglycerate kinase, glycosomal (Trypanosoma brucei brucei) (UniProt P07378); assay: qHTS for inhibitors of Phosphogylcerate Kinase: Hit Validation Screen (AID 686980)
# Procedure, shortened: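 Recombinant glycosomal PGK reaction used 1,3-bisphosphoglycerate generated in-well by GAPDH (100nM final) in 100mM TEA pH 7.6, 5mM MgCl2, 0.01% Tween-20. After 60 minutes at room temperature, ATP was read by Kinase-Glo Plus luminescence end-point.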
# [2] = molecular target: DNA polymerase iota (Homo sapiens) (UniProt Q9UNA4); assay: qHTS for Inhibitors of Polymerase Iota: Confirmatory Assay for Cherry-picked Compounds (AID 720496); conditions: Pol iota primer extension, TAMRA/BHQ fluorescence; also: potency is read from the fitted curve at half-maximal effect
# Procedure, shortened: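 10 nM Pol iota + cpd, 15 min RT; start w/ 50 nM (final) TAMRA reporter/BHQ-2 template primer substrate; ex 525/em 598 nm read at 0 and 10 min kinetic.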
# [3] = molecular target: DNA polymerase kappa (Homo sapiens) (UniProt Q9UBT6); assay: qHTS for Inhibitors of Polymerase Kappa: Confirmatory Assay for Cherry-picked Compounds (AID 720501); conditions: purified Pol-kappa, fluorescent strand-displacement substrate; also: potency is read from the fitted curve at half-maximal effect
# Procedure, shortened: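 10 nM human Pol-kappa was preincubated with compound 15 min at room temperature, then 50 nM (final) primer/template substrate with TAMRA-labeled reporter strand and BHQ-2-labeled template added. Fluorescence (Ex 525, Em 598 nm) read at 0 and 10 min.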
# [4] = molecular target: DNA polymerase eta (Homo sapiens) (UniProt Q9Y253); assay: qHTS for Inhibitors of Polymerase Eta: Confirmatory Assay for Cherry-picked Compounds (AID 720502); conditions: Pol eta primer extension, TAMRA/BHQ fluorescence, 10 min; also: potency is read from the fitted curve at half-maximal effect
# Procedure, shortened: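 Plates with 10 nM enzyme and compound stood 15 min at room temperature before substrate addition (50 nM final). Displacement of the TAMRA reporter from the BHQ-2 template was tracked for 10 min.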
# [5] = molecular target: Rap guanine nucleotide exchange factor 3 (Homo sapiens) (UniProt O95398); assay: Confirmatory qHTS for antagonist of cAMP-regulated guanine nucleotide exchange factor 3 (EPAC1) (AID 1645880); conditions: EPAC1 Rap1B-BODIPY-GDP exchange, fluorescence; series mostly up to 115 µM; also: nearly all actives have a fitted effect of over 55% in size; also: potency is read from the fitted curve at half-maximal effect
# Procedure, shortened: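 Released BODIPY-GDP fluoresces less than Rap1-bound BODIPY-GDP; the signal is followed at 480/540 nm at 5-min intervals over 30 min, after 5 min at room temperature. Reactions contain 100 nM EPAC1, 250 nM RAP1B-BODIPY-GDP and 50 uM GDP; results are normalized to ATA and DMSO.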
# [6] = molecular target: Rap guanine nucleotide exchange factor 4 (Homo sapiens) (UniProt Q8WZA2); assay: Confirmatory qHTS for antagonist of cAMP-regulated guanine nucleotide exchange factor 4 (EPAC2) (AID 1645885); conditions: activity change, negative = inhibition: at 12.7 µM (top of the series) unless noted; also: nearly all actives have a fitted effect of over 25% in size; also: potency is read from the fitted curve at half-maximal effect
smiles,measurement,setting,value
Cc1ccc(Cl)cc1NC(=O)Nc1cn(CC(C)C)c(=O)c2ccccc12,Potency,[1],inactive
CCN(CC)CCOC(=O)c1ccc(NC(=O)c2nn(-c3ccc(C)cc3)c(=O)c3c2c2ccccc2n3C)cc1,Potency,[2],"inconclusive: 37.7 µM [inhibitor, partial curve]"
same,Potency,[3],"inconclusive: 42.3 µM [inhibitor, partial curve]"
same,Potency,[4],"inconclusive: 84.9 µM [inhibitor, single point]"
CC1(C(=O)NS(=O)(=O)c2ccc3ccccc3c2)CCN1C(=O)Cc1ccc(-c2ccccc2)cc1 (stereo unspecified),Potency,[5],"inconclusive: 56.2 µM [inhibitor, partial curve]"
same,Potency,[6],inactive
Cc1ccc(S(=O)(=O)NN2C(=O)/C(=C/c3cccc(F)c3)SC2=S)cc1,Potency,[5],active: 23.9 µM
same,Potency,[6],"inconclusive: 23.9 µM [inhibitor, full curve, poor fit]"
COc1ccc(CCNC(=O)CCCCCn2c(SCC(N)=O)nc3cc4c(cc3c2=O)OCO4)cc1OC,Potency,[5],inactive
same,Potency,[6],inactive
CCc1nnc(NS(=O)(=O)c2ccc(NCc3cc(Cl)cc(Cl)c3O)cc2)s1,Potency,[5],"inconclusive: 95.3 µM [inhibitor, partial curve, poor fit]"
same,Potency,[6],active: 5.36 µM
O=C(O)CN1C(=O)/C(=C\c2cc(Br)ccc2OCc2ccccc2Cl)SC1=S,Potency,[5],active: 33.8 µM
same,Potency,[6],"inconclusive: 0.0426 µM [inhibitor, full curve]"
CSCCC(NS(=O)(=O)c1ccc2c(c1)oc(=O)n2C)C(=O)NC1CCCCC1 (stereo unspecified),Potency,[5],inactive
same,Potency,[6],"inconclusive: 4.78 µM [inhibitor, full curve, poor fit]"
Cc1ccc(O)c(CNc2ccc(S(=O)(=O)Nc3nccs3)cc2)c1,Potency,[5],"inconclusive: 79.4 µM [inhibitor, single point]"
same,Potency,[6],"inconclusive: 3.38 µM [inhibitor, single point]"
COc1ccc(/C=C2\SC(=S)NC2=O)cc1OS(=O)(=O)c1ccc(NC(C)=O)cc1,Potency,[5],active: 37.9 µM
same,Potency,[6],"inconclusive: 30.1 µM [inhibitor, partial curve, poor fit]"
Cn1c(=O)c(C(=O)NNC(=O)c2ccccc2Br)c(O)c2ccccc21,Potency,[5],"inconclusive: 50.1 µM [inhibitor, partial curve]"
same,Potency,[6],inactive
O=C(C1=C(O)C(=O)N(c2nc3ccc(Cl)cc3s2)C1c1ccco1)c1ccco1 (stereo unspecified),Potency,[5],active: 16.9 µM
same,Potency,[6],inactive
CCOC(=O)C1C(=O)C=C(c2ccc(C)cc2)CC1c1ccccc1 (stereo unspecified),Potency,[5],"inconclusive: 14.1 µM [inhibitor, partial curve, poor fit]"
same,Potency,[6],"inconclusive: 8.49 µM [inhibitor, single point]"
CCC(=O)NC(c1ccc(C)cc1)c1cc([N+](=O)[O-])c2cccnc2c1O (stereo unspecified),Potency,[5],active: 53.6 µM
same,Potency,[6],"inconclusive: 19 µM [inhibitor, full curve, poor fit]"
Cn1c(N)c(C(=O)COC(=O)Cc2ccc(Cl)c(Cl)c2)c(=O)n(C)c1=O,Potency,[5],"inconclusive: 60.1 µM [inhibitor, partial curve]"
same,Potency,[6],"inconclusive: 37.9 µM [inhibitor, full curve]"
COc1ccc(S(=O)(=O)Nc2ccccc2SC)cc1C,Potency,[5],"inconclusive: 95.3 µM [inhibitor, partial curve, poor fit]"
same,Potency,[6],active: 10.7 µM
C#CCOc1nc(C)cc(C)c1S(=O)(=O)c1ccccc1C,Potency,[5],inactive
same,Potency,[6],"inconclusive: 2.69 µM [inhibitor, partial curve, poor fit]"
O=C(Cc1ccc(Br)cc1)N(Cc1ccccc1)c1ccccn1,Potency,[5],inactive
same,Potency,[6],"inconclusive: 23.9 µM [inhibitor, full curve]"
C=CC(C)N1C(=O)S/C(=C\c2ccc(N3CCOCC3)cc2C)C1=O (stereo unspecified),Potency,[5],"inconclusive: 84.9 µM [inhibitor, single point]"
same,Potency,[6],active: 84.9 µM
COc1ccc(-n2ccn(Cc3ccc(C)cc3)c(=O)c2=O)cc1OC,Potency,[5],inactive
same,Potency,[6],inactive
Cc1ccc2oc(C(=O)N(Cc3ccc(N(C)C)cc3)CC3CCCO3)c(C)c2c1 (stereo unspecified),Potency,[5],inactive
same,Potency,[6],"inconclusive: 19 µM [inhibitor, full curve]"
Cc1ccc2oc(=O)n(CCCOc3ccccc3Cl)c2c1,Potency,[5],inactive
same,Potency,[6],inactive
O=c1c2ccccc2oc2ccc(Oc3ccccc3)cc12,Potency,[5],inactive
same,Potency,[6],"inconclusive: 4.41 µM [inhibitor, partial curve, poor fit]"

# Reformatted bar-delimited: entries from further up.
smiles | measurement | setting | value
Cc1ccc(O)c(CNc2ccc(S(=O)(=O)Nc3nccs3)cc2)c1 | Potency | [5] | inconclusive: 79.4 µM [inhibitor, single point]
COc1ccc(/C=C2\SC(=S)NC2=O)cc1OS(=O)(=O)c1ccc(NC(C)=O)cc1 | Potency | [6] | inconclusive: 30.1 µM [inhibitor, partial curve, poor fit]
Cn1c(N)c(C(=O)COC(=O)Cc2ccc(Cl)c(Cl)c2)c(=O)n(C)c1=O | Potency | [6] | inconclusive: 37.9 µM [inhibitor, full curve]
Cc1ccc2oc(C(=O)N(Cc3ccc(N(C)C)cc3)CC3CCCO3)c(C)c2c1 (stereo unspecified) | Potency | [6] | inconclusive: 19 µM [inhibitor, full curve]
